No constants are given. Whether binding was seen depends on the method and setting. Binding seen in cells or lysates may run through a third protein. Some entries that bind do so weakly or less than the wild type. Sequences can lack the tags named with a protein.
B1: keratin 14, P02533 1-472 (protein)
chain: MTTCSRQFTSSSSMKGSCGIGGGIGGGSSRISSVLAGGSCRAPSTYGGGLSVSSSRFSSGGACGLGGGYGGGFSSSSSSFGSGFGGGYGGGLGAGLGGGFGGGFAGGDGLLVGSEKVTMQNLNDRLASYLDKVRALEEANADLEVKIRDWYQRQRPAEIKDYSPYFKTIEDLRNKILTATVDNANVLLQIDNARLAADDFRTKYETELNLRMSVEADINGLRRVLDELTLARADLEMQIESLKEELAYLKKNHEEEMNALRGQVGGDVNVEMDAAPGVDLSRILNEMRDQYEKMAEKNRKDAEEWFFTKTEELNREVATNSELVQSGKSEISELRRTMQNLEIELQSQLSMKASLENSLEETKGRYCMQLAQIQEMIGSVEEQLAQLRCEMEQQNQEYKILLDVKTRLEQEIATYRRLLEGEDAHLSSSQFSSGSQSSRDVTSSSRQIRTKVMDVHDGKVVSTHEQVLRTKN
B2: keratin 18 (protein, UniProt P05783 1-430)
chain: MSFTTRSTFSTNYRSLGSVQAPSYGARPVSSAASVYAGAGGSGSRISVSRSTSFRGGMGSGGLATGIAGGLAGMGGIQNEKETMQSLNDRLASYLDRVRSLETENRRLESKIREHLEKKGPQVRDWSHYFKIIEDLRAQIFANTVDNARIVLQIDNARLAADDFRVKYETELAMRQSVENDIHGLRKVIDDTNITRLQLETEIEALKEELLFMKKNHEEEVKGLQAQIASSGLTVEVDAPKSQDLAKIMADIRAQYDELARKNREELDKYWSQQIEESTTVVTTQSAEVGAAETTLTELRRTVQSLEIDLDSMRNLKASLENSLREVEARYALQMEQLNGILLHLESELAQTRAEGQRQAQEYEALLNIKVKLEAEIATYRRLLEDGEDFNLGDALDSSNSMQTIQKTTTRRIVDGKVVSETNDTKVLRH

By UniProt entry, the sequences of proteins in these tests, tags left out.
UniProt P49674: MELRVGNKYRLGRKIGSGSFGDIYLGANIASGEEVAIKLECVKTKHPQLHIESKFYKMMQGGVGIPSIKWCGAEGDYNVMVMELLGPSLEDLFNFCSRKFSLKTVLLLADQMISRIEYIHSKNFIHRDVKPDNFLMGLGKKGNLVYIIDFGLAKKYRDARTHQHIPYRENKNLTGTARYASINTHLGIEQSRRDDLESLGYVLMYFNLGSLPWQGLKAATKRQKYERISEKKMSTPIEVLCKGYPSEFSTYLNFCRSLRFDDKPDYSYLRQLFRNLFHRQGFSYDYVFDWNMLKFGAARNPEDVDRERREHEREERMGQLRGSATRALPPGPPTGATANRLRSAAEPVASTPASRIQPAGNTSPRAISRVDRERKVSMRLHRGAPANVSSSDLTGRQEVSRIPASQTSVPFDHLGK
UniProt P13647: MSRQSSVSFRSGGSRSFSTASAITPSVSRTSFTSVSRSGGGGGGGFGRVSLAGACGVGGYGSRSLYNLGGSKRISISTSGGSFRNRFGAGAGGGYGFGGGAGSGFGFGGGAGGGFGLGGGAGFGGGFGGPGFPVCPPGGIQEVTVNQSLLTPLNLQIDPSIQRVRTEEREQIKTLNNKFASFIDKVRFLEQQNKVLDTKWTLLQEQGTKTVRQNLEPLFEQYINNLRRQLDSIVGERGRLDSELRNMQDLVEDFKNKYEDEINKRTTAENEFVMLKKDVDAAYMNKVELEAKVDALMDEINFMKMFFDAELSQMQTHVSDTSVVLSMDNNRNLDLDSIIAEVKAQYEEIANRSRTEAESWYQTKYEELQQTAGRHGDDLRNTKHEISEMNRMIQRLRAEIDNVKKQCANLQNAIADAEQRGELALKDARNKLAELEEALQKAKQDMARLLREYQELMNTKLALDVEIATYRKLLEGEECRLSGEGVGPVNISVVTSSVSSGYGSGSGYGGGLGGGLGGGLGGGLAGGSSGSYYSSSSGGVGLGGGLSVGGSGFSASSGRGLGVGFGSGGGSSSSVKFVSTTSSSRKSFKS
UniProt Q04695: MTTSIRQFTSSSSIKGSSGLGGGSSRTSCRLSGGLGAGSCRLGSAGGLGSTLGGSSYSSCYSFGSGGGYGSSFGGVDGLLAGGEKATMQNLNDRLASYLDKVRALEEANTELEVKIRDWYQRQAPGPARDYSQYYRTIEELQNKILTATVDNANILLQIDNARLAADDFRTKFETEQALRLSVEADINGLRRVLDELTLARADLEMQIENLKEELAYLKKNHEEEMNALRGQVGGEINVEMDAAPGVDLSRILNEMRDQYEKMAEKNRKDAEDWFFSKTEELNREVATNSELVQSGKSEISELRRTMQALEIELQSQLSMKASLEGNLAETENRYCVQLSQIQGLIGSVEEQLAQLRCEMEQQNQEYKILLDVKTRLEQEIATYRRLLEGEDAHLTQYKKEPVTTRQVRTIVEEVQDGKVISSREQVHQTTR

Tests used:
FAM83H-FLAG (human) = target: T1, FAM83H-FLAG (human) (UniProt Q6ZRV2); assay: co-IP; anti-FLAG antibody (M2) cross-linked to Protein G Dynabeads; lysates of transfected HAM2 cells in PBS with 1% Triton X-100, sonicated, 100,000 x g supernatant; 4 °C for 3 h; Western blotting of immunoprecipitates
T1 sequence: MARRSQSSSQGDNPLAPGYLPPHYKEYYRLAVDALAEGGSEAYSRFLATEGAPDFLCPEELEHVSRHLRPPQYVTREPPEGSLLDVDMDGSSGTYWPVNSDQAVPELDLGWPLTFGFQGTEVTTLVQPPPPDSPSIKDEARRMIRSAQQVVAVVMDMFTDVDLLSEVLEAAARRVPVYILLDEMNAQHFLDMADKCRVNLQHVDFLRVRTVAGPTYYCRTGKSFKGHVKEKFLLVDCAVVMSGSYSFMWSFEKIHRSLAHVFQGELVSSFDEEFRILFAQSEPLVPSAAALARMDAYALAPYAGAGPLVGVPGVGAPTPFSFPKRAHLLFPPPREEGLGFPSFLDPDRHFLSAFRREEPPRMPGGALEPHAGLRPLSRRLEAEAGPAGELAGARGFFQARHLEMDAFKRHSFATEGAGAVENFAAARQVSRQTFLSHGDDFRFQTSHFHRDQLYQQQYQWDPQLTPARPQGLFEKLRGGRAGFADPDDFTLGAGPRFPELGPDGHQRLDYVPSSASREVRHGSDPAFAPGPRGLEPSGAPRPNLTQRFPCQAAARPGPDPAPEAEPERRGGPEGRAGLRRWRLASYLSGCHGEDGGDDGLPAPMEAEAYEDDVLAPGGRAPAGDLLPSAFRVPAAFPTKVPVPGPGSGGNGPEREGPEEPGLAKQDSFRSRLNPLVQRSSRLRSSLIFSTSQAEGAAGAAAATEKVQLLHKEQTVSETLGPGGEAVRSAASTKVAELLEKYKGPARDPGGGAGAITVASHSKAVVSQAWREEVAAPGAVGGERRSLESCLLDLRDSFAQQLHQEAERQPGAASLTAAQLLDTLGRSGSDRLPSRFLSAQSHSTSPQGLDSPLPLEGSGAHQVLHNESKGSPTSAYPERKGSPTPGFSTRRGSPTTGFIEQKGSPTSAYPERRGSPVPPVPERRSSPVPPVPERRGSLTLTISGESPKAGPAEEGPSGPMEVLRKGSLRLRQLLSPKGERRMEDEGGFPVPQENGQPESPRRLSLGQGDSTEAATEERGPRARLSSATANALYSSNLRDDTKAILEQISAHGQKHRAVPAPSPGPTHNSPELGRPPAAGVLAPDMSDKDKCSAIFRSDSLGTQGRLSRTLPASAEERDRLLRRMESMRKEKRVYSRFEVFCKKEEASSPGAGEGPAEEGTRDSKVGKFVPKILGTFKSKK

[1] = target: T2, FAM83H-FLAG (human), Q6ZRV2; assay: as above; conditions: remark: other sources report otherwise
T2 chain: T1 sequence

Molecule	binding (FAM83H-FLAG (human))	binding [1]
casein kinase I epsilon (CK-1ε) (from UniProt P49674 1-416) (enzyme)	binds	–
keratin 5 (from UniProt P13647 1-590)	binds	–
keratin 17 (from UniProt Q04695 1-432)	binds	–
B1	–	binds
B2	binds	–

From article PMC4879633
